Laboratory results: PubChem BioAssay AID493014 (National Center for Advancing Translational Sciences (NCATS), 2011)
The other results are listed elsewhere or left out. These are further read-outs of the screen, such as a control signal, another cell line or another target. No call is given for them. The list favours compounds with an active or inconclusive main result. The note in brackets gives the kind of curve behind each potency; many fits are weak.

Test: qHTS Assay to Find Inhibitors of Chronic Active B-Cell Receptor Signaling
Conditions: ABC-DLBCL IkBa-CBG/CBR reporter, luminescence ratio (green luciferase fused to IkBa over red control in TMD8 lymphoma cells), 4 h
Procedure, shortened: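 Doxycycline induced both beetle luciferases in TMD8 lymphoma cells; IKK-driven degradation limits the IkappaBalpha-fused green signal, while red luminescence normalises for cell number and nonspecific effects. Compounds tested up to 46 uM, 4 hrs.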

[1] = measured here: CBR red luminescence, cell number
[2] = measured here: IkBa-CBG green luminescence

For `CCOc1ccc2c(c1)C(C)=CC(C)(C)N2S(=O)(=O)c1ccc(C)cc1`, the AC50 [1] was 3.16 µM [rising, full curve] and the AC50 [2] was 3.55 µM [falling, full curve].

With `C/C(=N\NC(=O)c1cccc(S(=O)(=O)N2CCOCC2)c1)c1ccco1` the AC50 [1] was 6.31 µM [rising, partial curve, poor fit].

With `Cc1ccc(-c2cc(-c3ccc(F)cc3)n[nH]2)c(O)c1` the AC50 [1] was 17.8 µM [falling, single point].

In the case of `O=C1CCCC2=C1C(c1ccncc1)n1c(nc3ccccc31)N2` (configuration not stated), the AC50 [1] is reported as 6.31 µM [falling, single point].

For `O=C(NNC(=S)NC(=O)c1cccnc1)c1ccc(F)cc1`, the AC50 [1] was 20 µM [falling, partial curve].

For `COc1ccc(CCNC(=O)COC(=O)Cn2cnc3ccccc32)cc1OC`, the AC50 [1] was 10 µM [rising, partial curve, poor fit].

For `O=C(CSc1nc(Cc2ccccc2)nc2ccccc12)Nc1nc2c(s1)CCCC2`, the AC50 [1] was 32.6 µM [falling, single point].

For `O=C(Cc1cccc2ccccc12)NNC(=O)Nc1ccc(Cl)cc1`, the AC50 [1] was 0.447 µM [rising, partial curve, poor fit].

In the case of `Fc1ccccc1/C=C1\CCCC2=C1Nc1ncnn1C2c1ccccc1F` (configuration not stated), the AC50 [1] is reported as 23.1 µM [falling, partial curve] and the AC50 [2] is reported as 25.9 µM [rising, partial curve, poor fit].

For `CCOC(=O)C1=C(C)N(C)C(=O)NC1c1c(C)nn(-c2ccccc2)c1C` (configuration not stated), the AC50 [1] was 25.9 µM [rising, single point].

For `Cc1ccccc1Cn1ccc(NC(=O)c2onc(C)c2Cl)n1`, the AC50 [1] was 1.46 µM [falling, full curve, poor fit].

With `Cc1nn(Cc2ccccc2Cl)c(C)c1C(=O)NC1=NCCS1` the AC50 [1] was 0.251 µM [rising, full curve, poor fit].

For `Oc1ccccc1-c1cc(-c2ccc(F)cc2)n[nH]1`, the AC50 [1] was 5.01 µM [falling, partial curve].

In the case of `Cc1c(C(=O)N2CCCC2)sc(NC(=O)c2ccco2)c1C#N`, the AC50 [1] is reported as 20.6 µM [falling, single point].

In the case of `CC(=O)OCC1(C)CN(c2ccccc2)N(C(C)=O)C1=O` (configuration not stated), the AC50 [1] is reported as 2.51 µM [falling, partial curve, poor fit].

With `CCOC(=O)CC(=O)CSc1nnc2c(n1)[nH]c1ccccc12` the AC50 [1] was 2.82 µM [rising, partial curve, poor fit].

For `CCCc1cnc(N2CCN(C(=O)c3ccccc3)CC2)nc1`, the AC50 [1] was 7.08 µM [falling, partial curve, poor fit].

With `Cc1ccc(OCC(=O)N2CC3(C)CC2CC(C)(C)C3)cc1` (configuration not stated) the AC50 [1] was 46.1 µM [rising, single point].

In the case of `COc1ccc(O)c(-c2c(-c3ccc(Cl)cc3)n[nH]c2C)c1`, the AC50 [1] is reported as 28.2 µM [falling, single point].

For `CCN(CC(=O)NC(C)(C)C)C(=O)c1ccc2c(c1)S(=O)(=O)c1ccccc1C2=O`, the AC50 [1] was 14.1 µM [rising, partial curve, poor fit].

With `Cc1ccc(C(=O)NC(=S)N2CCN(c3cc(C)ccc3C)CC2)cc1` the AC50 [1] was 8.91 µM [rising, partial curve, poor fit].

In the case of `COc1ccc(/C=C/C(=O)Nc2cccc(S(=O)(=O)NC3=NCCCCC3)c2)cc1`, the AC50 [1] is reported as 8.91 µM [falling, partial curve, poor fit].

With `Cc1ccccc1N(CC(=O)Nc1ccc(F)cc1)S(C)(=O)=O` the AC50 [1] was 15.8 µM [falling, partial curve, poor fit].

With `O=C1c2ccc(-c3ccc(F)cc3OCc3ccccc3)cc2S(=O)(=O)c2cccc(C(=O)N3CCN(c4ncc(Br)cn4)CC3)c21` the AC50 [1] was 29.1 µM [rising, partial curve, poor fit].

In the case of `COc1cccc(-c2noc(C3CCCN(C(=O)c4ccccc4OC)C3)n2)c1` (configuration not stated), the AC50 [1] is reported as 15.8 µM [falling, single point].

In the case of `Cc1cc(/C=N/NC(=O)c2cccc(N(C)C)c2)c(C)n1-c1cc(C(=O)O)cc(C(=O)O)c1`, the AC50 [1] is reported as 14.1 µM [falling, partial curve, poor fit].

In the case of `O=C(NCCCO)c1ccc2[nH]c3c(c2c1)CCCC3`, the AC50 [1] is reported as 29.1 µM [rising, single point].

In the case of `COc1ccc2cc(C(=O)C3CCCN(Cc4cnc(N5CCOCC5)s4)C3)ccc2c1` (configuration not stated), the AC50 [1] is reported as 11.2 µM [falling, partial curve].

For `CC1CCN(CCCNC(=O)c2cc3c(Cl)nc4ccccc4c3s2)CC1`, the AC50 [1] was 14.1 µM [falling, single point].

With `O=C1N=C(N2CCc3ccccc3C2)S/C1=C\c1ccc(O)cc1` the AC50 [1] was 35.5 µM [falling, single point].

For `CCN(CC)N=Nc1ccc(C(=O)O)cc1`, the AC50 [1] was 16.4 µM [falling, single point].

For `CCn1cc(/C=N\NC(=O)c2ccc(F)cc2)cn1`, the AC50 [1] was 29.1 µM [falling, single point].

For `Cn1cc([N+](=O)[O-])c(C(=O)Nc2cc(Oc3cccnc3)cc([N+](=O)[O-])c2)n1`, the AC50 [1] was 2.51 µM [falling, full curve, poor fit].

With `CCC(=O)NC(=S)Nc1cccc(NC(=O)c2ccccc2Cl)c1` the AC50 [1] was 0.794 µM [falling, partial curve, poor fit].

For `COc1ccccc1NC(=O)N1CCN(CCc2ccccc2)CC1`, the AC50 [1] was 35.5 µM [falling, single point].

For `CN(Cc1nc2c(s1)CCCC2)C(=O)CCc1nnc(-c2ccccc2)o1`, the AC50 [1] was 10 µM [rising, partial curve, poor fit].

In the case of `COc1ccc2[nH]cc(CCNS(=O)(=O)c3ccccc3)c2c1`, the AC50 [1] is reported as 35.5 µM [rising, single point].

For `CCOC(=O)/C=C/c1ccc2oc3ccccc3c(=O)c2c1`, the AC50 [1] was 20 µM [rising, partial curve, poor fit].

With `Cc1ccc(S(=O)(=O)N2CCC(C(=O)N3CCC3)CC2)cc1` the AC50 [1] was 2.82 µM [rising, full curve, poor fit].

With `COc1cccc(Nc2nc(Nc3ccc(Cl)c(C(=O)O)c3)nc(C)c2[N+](=O)[O-])c1` the AC50 [1] was 1.84 µM [falling, partial curve, poor fit] and the AC50 [2] was 1.16 µM [rising, full curve, poor fit].

In the case of `CCn1c(=O)cc(OCC(=O)NCc2ccco2)c2ccccc21`, the AC50 [1] is reported as 25.1 µM [rising, single point].

For `Cc1ccccc1Nc1nc(N)nc(COC(=O)c2ccccc2)n1`, the AC50 [1] was 2.31 µM [rising, partial curve, poor fit].

In the case of `Cc1ccc(C(=O)NCC(=O)OCC(=O)Nc2ccccc2C#N)s1`, the AC50 [1] is reported as 28.2 µM [rising, single point].

With `N/C(=N\OC(=O)c1cccc(Cl)c1)c1ccccn1` the AC50 [1] was 8.2 µM [falling, partial curve].

For `Cc1cc(C)cc(NC(=O)c2sc3nc(C)cc(C)c3c2N)c1`, the AC50 [1] was 12.6 µM [falling, partial curve, poor fit].

With `CC(=O)c1ccc(N2CCN(S(=O)(=O)c3cc4c(cc3C)NC(=O)CO4)CC2)cc1` the AC50 [1] was 17.8 µM [rising, single point].

For `O=C(/C=C(\O)c1ccccc1)C(=O)NNC(=O)c1ccccc1[N+](=O)[O-]`, the AC50 [1] was 4.47 µM [falling, full curve].

For `OCCCCc1nccc2c1[nH]c1ccccc12`, the AC50 [1] was 25.1 µM [falling, single point].

With `Cc1nn(-c2cccc(Cl)c2)c2c1C(c1ccncc1)C(C#N)=C(N)O2` (configuration not stated) the AC50 [1] was 0.0146 µM [rising, full curve, poor fit].

In the case of `CCC(CC)C(=O)N1CCN(Cc2ccc3c(c2)OCO3)CC1`, the AC50 [1] is reported as 29.1 µM [falling, single point].

In the case of `COc1ccccc1CNC(=O)c1cc2ccccc2o1`, the AC50 [1] is reported as 0.355 µM [falling, full curve, poor fit].

For `COc1cc2cc(C(=O)N3CCC(Cc4ccccc4)CC3)[nH]c2cc1OC`, the AC50 [1] was 28.2 µM [rising, single point].

For `c1ccc(-c2cc(-c3ccc(N4CCOCC4)cc3)nc3ccccc23)cc1`, the AC50 [1] was 16.4 µM [rising, partial curve, poor fit].

In the case of `Cc1ccc(OCCNC(=O)c2cncc(Br)c2)cc1C`, the AC50 [1] is reported as 0.562 µM [rising, full curve].

With `N#Cc1ccncc1Sc1ccc(Cl)cc1` the AC50 [1] was 12.6 µM [rising, partial curve, poor fit].

For `COc1ccc(NC(=O)Nc2ccc(F)cc2F)cc1`, the AC50 [1] was 10 µM [falling, partial curve].

With `O=C(NCc1cccc2ccccc12)c1cccs1` the AC50 [1] was 6.51 µM [rising, full curve].

For `Cc1ccc(C(=O)NCCc2ccccc2)cc1S(=O)(=O)N1CCOCC1`, the AC50 [1] was 29.1 µM [rising, single point].

In the case of `CCOC(=O)c1ccc(-c2c(C)cc3oc(=O)cc(-c4ccccc4)c3c2C)cc1`, the AC50 [1] is reported as 2.59 µM [rising, full curve, poor fit].

For `COc1cc(OC)c2c(-c3cccc(-c4cccc(N)c4)c3)cc(=O)oc2c1`, the AC50 [1] was 4.11 µM [rising, full curve, poor fit] and the AC50 [2] was 18.4 µM [falling, partial curve].

With `COc1ccc(NC(=O)C(=O)NCC(c2ccco2)N2CCc3ccccc32)cc1` (configuration not stated) the AC50 [1] was 0.0517 µM [falling, full curve, poor fit].

In the case of `CCC1CCCCN1CCCNC(=O)c1ccc2nc(N3CCC(C)CC3)sc2c1` (configuration not stated), the AC50 [1] is reported as 0.316 µM [falling, full curve, poor fit].

With `CCC1=C(OC(=O)N(CC)CC)N2C(=O)OC(=NCC(=O)OC)[C@]2(Cc2ccccc2)[C@H]2C1=CC[C@H]1C(=O)N(c3ccccc3)C(=O)[C@H]12` the AC50 [1] was 3.98 µM [falling, partial curve, poor fit].
